From PMC7159925 come the findings set out here.

Amino acid sequences for entries named in this document (tags omitted).
UniProt Q10658: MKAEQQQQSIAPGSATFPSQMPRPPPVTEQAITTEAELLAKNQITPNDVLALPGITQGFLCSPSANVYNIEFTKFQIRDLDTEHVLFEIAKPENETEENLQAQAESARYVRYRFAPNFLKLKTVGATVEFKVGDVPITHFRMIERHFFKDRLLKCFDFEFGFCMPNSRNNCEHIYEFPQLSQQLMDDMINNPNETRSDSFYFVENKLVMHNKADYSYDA

Results are given in words; binding and its absence hold for the method and conditions named. In cells and extracts the contact can be indirect. Some results given as binding are weak or reduced against the parent protein; the word gives no strength. Sequences can lack the tags named with a protein.

The target in the assay is bio-mCherry-UNC-119 (C. elegans) (UniProt Q10658). Description: pull-down; streptavidin coated magnetic beads with lysates of HEK293T cells coexpressing BirA, bio-mCherry-UNC-119 (bait) and a GFP labeled prey; 1 hr at 4°C; 100 mM Tris-HCl pH 7.5, 150 mM NaCl, 1% Triton X-100; western blot. A general note: Immunoblotting shows a protein as a band on a membrane.

B1: UNC-33L::GFP (protein, UniProt Q01630 1-854)
chain: MFPFLAPIRSANHVEQQGTKYYVEITFLADSPYSRAPSSTGTEKSVIPTLRNLDDLETVSNKSRSSEGVNKLGSRPNSRSSAIVKKTSVSSLPTSARSEGKSSPIPVKDAIPAPARHKNKGLEMSSAMMELFGGGGSTSPAPSKRENPADAPSDRVVSNAKLSQPGPEWFEGFEQMDMTDIELPPDPNCPAEKVLRGEKSTPDFDSDWQEAKEDVLDPQSYPKSFNPAESLPGPDIGAGVDDEEEPEAEAQEMEEPQYESKVDEKDDDDNGSSSSKKGHPSEDGDSTRNGETPTDRRNSGAIEETADGESSAQSAAEKKNSGDDGNGGGGEMSILLVKNAQIVNDDAIFVADILIEDGIIQNVAPNLEAPEGAEVLDAAGKLALPAGIDVYTQVTDSSVDDLSTGCKSAIAGGTGTIVEVVRPRGAESVVSAVKRVKNQLEKSGISCHVALSVAITDFCEQEMSELVKNEGINSFVLDGVSLTDDKLLELFEHVKRLGALIRVVPENKSIVAMLEKKMLKLGVTGPEGFPQSRPESLEADRVSGVCVLGNLASCPISIVQVSSADSLAAIEKARASGALAHAEIASAAVTADGSALFSQDLRFASAHLTDVPLRRGAPDRMIGALSTQPLVVCTSGHRPVNSATRVAAKDFAIAQKGSTGAEERMAVVWERAVRSGRIDAMRFVAVTSTNAAKMFNMYPKKGRIAVGADADLVIWDASGKRVLESSRAQSSQENSMYDGLTVHSVVTATIVGGKIAYQNGEVREAPVAGGFLRLSPNSPYLFSMVGQRDKFANVERVEREASSQQQKPQQNGHHKNSGDFDRNRTKVMESSIDFGGSAANRPRNPPGGRTTGFW
B1: the binding entry is “binds”.
